Measured values taken from patent US20120183553A1.
No constants are given. Whether binding was seen depends on the method and setting. For part of these data: Binding seen in cells or lysates may run through a third protein. Some binding calls cover weakened binding; strength is not graded here. Where a sequence is shown, tags or fusion partners need not be part of it.

Sequences of proteins named here, by UniProt entry; tags and fusion partners are left off.
UniProt Q9NQB0: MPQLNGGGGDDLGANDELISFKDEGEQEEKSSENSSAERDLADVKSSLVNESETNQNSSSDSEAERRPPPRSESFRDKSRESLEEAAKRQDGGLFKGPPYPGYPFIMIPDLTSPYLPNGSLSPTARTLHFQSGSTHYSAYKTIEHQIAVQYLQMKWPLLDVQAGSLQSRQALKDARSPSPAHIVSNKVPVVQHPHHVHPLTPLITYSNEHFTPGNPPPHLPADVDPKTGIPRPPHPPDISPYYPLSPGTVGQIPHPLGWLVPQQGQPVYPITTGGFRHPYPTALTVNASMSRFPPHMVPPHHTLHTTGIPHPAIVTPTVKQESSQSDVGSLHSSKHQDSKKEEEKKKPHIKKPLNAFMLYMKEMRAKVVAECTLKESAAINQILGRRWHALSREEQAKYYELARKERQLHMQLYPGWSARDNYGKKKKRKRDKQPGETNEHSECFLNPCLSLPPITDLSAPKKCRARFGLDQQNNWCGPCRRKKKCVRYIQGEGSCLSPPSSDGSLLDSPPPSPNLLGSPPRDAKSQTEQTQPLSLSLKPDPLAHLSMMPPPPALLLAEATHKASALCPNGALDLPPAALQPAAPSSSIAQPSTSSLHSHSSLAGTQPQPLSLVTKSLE

Legend:
TCF4 [1] = target: TCF4 (UniProt Q9NQB0); experiment: co-immunoprecipitation in the presence of 20 µg/ml ethidium bromide
TCF4 [2] = target: TCF4 (UniProt Q9NQB0); experiment: TCF4 immunoprecipitation from HCT116 lysates after transfection with increasing Myc-Hom-1, western blot
TCF4 [3] = target: TCF4 (UniProt Q9NQB0); experiment: co-immunoprecipitation from HCT116 cell extracts with anti-TCF4-coated beads, western blot

Measured: binding

B1: Myc-tagged Hom-1 (protein, not shown: small tags and cut ends)
chain: MRLSSSPPRGPQQLSSFGSVDWLSQSSCSGPTHTPRPADFSLGSLPGPGQTSGAREPPQAVSIKEAAGSSNLPAPERTMAGLSKEPNTLRAPRVRTAFTMEQVRTLEGVFQHHQYLSPLERKRLAREMQLSEVQIKTWFQNRRMKHKRQMQDPQLHSPFSGSLHAPPAFYSTSSGLANGLQLLCPWAPLSGPQALMLPPGSFWGLCQVAQEALASAGASCCGQPLASHPPTPGRPSLGPALSTGPRGLCAMPQTGDAF
binds: TCF4 [1] | TCF4 [2] | TCF4 [3]
